This is an account of results in paper PMC12172494.

Sequences of proteins named here, by UniProt entry; tags and fusion partners are left off. Residues count along the entry.
UniProt P02769, 25-607: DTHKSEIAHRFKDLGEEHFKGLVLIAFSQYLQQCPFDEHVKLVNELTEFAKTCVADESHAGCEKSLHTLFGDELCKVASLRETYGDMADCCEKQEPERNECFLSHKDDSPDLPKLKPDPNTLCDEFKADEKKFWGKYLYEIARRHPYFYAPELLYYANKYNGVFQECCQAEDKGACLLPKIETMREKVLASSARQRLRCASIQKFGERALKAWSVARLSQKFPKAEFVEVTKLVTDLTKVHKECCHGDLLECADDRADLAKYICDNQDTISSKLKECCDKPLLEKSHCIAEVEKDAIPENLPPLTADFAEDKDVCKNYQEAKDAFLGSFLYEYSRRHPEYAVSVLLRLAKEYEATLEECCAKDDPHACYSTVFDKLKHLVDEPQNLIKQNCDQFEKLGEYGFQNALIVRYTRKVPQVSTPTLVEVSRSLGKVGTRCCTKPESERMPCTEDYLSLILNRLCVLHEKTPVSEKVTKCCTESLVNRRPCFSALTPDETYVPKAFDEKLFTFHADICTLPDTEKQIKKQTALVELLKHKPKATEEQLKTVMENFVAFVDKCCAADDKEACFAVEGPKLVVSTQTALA

One series addresses BSA (UniProt P02769). Description: dot blot (dsRNA immobilized). The following applies: 1 mM Mg2+, BSA control; 50 mM Tris, 150 mM NaCl, 1 mM MgCl2, 1 mM DTT (pH of binding buffer not stated; protein fraction in 50 mM Tris, 150 mM NaCl, 50 mM imidazole pH 7.0); commercial protein.
Series [1] addresses T1, Toll-9-V5/His (Drosophila melanogaster) (UniProt Q9VPH1).
T1 sequence (looked up, limits assumed): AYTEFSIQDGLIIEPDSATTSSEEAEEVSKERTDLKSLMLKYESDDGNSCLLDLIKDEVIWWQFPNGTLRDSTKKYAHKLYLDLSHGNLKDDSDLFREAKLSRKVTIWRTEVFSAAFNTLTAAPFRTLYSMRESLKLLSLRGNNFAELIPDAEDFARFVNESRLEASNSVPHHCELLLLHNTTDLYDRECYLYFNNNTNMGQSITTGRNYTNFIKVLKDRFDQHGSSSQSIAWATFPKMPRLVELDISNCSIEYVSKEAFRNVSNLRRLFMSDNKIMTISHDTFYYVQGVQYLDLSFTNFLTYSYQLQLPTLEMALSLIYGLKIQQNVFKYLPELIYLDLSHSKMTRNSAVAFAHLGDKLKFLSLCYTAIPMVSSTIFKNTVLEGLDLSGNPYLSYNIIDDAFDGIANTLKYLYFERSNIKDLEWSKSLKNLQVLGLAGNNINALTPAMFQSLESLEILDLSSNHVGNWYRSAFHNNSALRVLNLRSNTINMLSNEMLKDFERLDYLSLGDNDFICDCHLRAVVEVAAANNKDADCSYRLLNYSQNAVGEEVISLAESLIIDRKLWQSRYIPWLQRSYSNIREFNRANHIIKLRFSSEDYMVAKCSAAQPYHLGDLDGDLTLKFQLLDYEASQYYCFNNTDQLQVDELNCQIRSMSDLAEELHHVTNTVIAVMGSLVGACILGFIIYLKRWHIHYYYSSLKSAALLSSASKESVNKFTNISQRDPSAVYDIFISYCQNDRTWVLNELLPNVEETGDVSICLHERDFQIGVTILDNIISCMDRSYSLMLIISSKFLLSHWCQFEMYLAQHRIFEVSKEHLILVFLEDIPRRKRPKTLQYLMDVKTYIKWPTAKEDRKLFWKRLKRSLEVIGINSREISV
Description: dot blot (protein immobilized, J2 anti-dsRNA). The conditions noted are these: 1 mM Mg2+, dsRNA 2 ug/mL, concentration-dependent; 50 mM Tris, 150 mM NaCl, 1 mM MgCl2, 1 mM DTT (pH of binding buffer not stated; protein fraction in 50 mM Tris, 150 mM NaCl, 50 mM imidazole pH 7.0); recombinant protein.

Series [2] addresses T1, Toll-9-V5/His (Drosophila melanogaster). Nature of the series: dot blot (dsRNA immobilized, anti-V5). The conditions noted are these: 1 mM Mg2+, 20-2000 ng dsRNA, concentration-dependent, dsRNA identity taken from the reciprocal assay's Methods; 50 mM Tris, 150 mM NaCl, 1 mM MgCl2, 1 mM DTT (pH of binding buffer not stated; protein fraction in 50 mM Tris, 150 mM NaCl, 50 mM imidazole pH 7.0); recombinant protein.

For at least one entry, the source does not settle the construct or the ends of the probe. For part of these data: A negative result means that nothing was seen under these conditions. For part of these data: At least one verdict was read from the data and is not stated in words by the source. For part of these data: Where a protein sequence is shown, tags need not be part of it.

For the sequence “GUGCACGUAUAACAACAGAUCGAUAUACCUGAUUGUGGGAUUCCUUCUCGUAGCUUUUUUUCGAAUUUCGGUUACCGGGAAUUACAGGAACGUAAUGCCCACGACGCUGUUUCUGUUCCAAAUGCCGCUCUACUGGAUAUGGAGCUUUACCGAUAUGGACCAAAGCACCCUGAGCUACUCGCACUGGAUACGUGACUCCCAUGGACUAGACUAUGCGGCCGGAAUGGCCUCCAACUACUUUCACGGCUACCUCAAACUUUCACUGCC / GGCAGUGAAAGUUUGAGGUAGCCGUGAAAGUAGUUGGAGGCCAUUCCGGCCGCAUAGUCUAGUCCAUGGGAGUCACGUAUCCAGUGCGAGUAGCUCAGGGUGCUUUGGUCCAUAUCGGUAAAGCUCCAUAUCCAGUAGAGCGGCAUUUGGAACAGAAACAGCGUCGUGGGCAUUACGUUCCUGUAAUUCCCGGUAACCGAAAUUCGAAAAAAAGCUACGAGAAGGAAUCCCACAAUCAGGUAUAUCGAUCUGUUGUUAUACGUGCAC [267 bp dsRNA]”, the binding result is on record as “no binding” in the series with BSA, “binds” in series [1] and “binds” in series [2].
